PubChem BioAssay AID1259264, Sanger Institute – 2017

- Assay: 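Kinases whose loss cuts CL40 colorectal cancer cell survival, alone or with drugs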 (primary screen)
- System: CL40 human colorectal cancer cells
- Knock-down reagent: siRNA pool against human genes
- Conditions: DMSO, or an anchor drug: BYL719 at 1 µM, cetuximab at 5 µg/ml, or trametinib at 10 nM
- Detection: 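Replicate-mean viability versus a non-targeting pool, robust z-score from control wells, and mean synergy with BYL719 1 µM, cetuximab 5 µg/ml or trametinib 10 nM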
- Reading the numbers: robust z-score, siRNA alone and viability, siRNA alone: higher = more viable cells
- Units: viability, siRNA alone in fraction of control
- Hit rule: 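a gene counts as essential when knock-down without drug gives a robust z-score below -3, meaning fewer cells; synergy scores play no part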
- Calls: active = essential (lowers viability alone); inactive = not essential
Shown is one part, drawn at random, of 794 reagents tested. 15 of all reagents (1.9%) were called active. 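Calls rest on knock-down alone at z-score below -3; synergy scores with the three drugs do not decide them.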 Unmarked entries are inactive. No viability above 1 is reported: the scale is capped. Further read-outs or replicates are left out here. Reagent sequences are not shown. Not given: the amount of reagent, the time to read-out.

{"gene":"MAP3K6","robust z-score, siRNA alone":0.539,"viability, siRNA alone":1}
{"gene":"MAGI3","robust z-score, siRNA alone":0.539,"viability, siRNA alone":1}
{"gene":"WNK4","robust z-score, siRNA alone":-1.48,"viability, siRNA alone":0.855}
{"gene":"ATP23","robust z-score, siRNA alone":-0.809,"viability, siRNA alone":0.903}
{"gene":"RIPK4","robust z-score, siRNA alone":0.455,"viability, siRNA alone":0.994}
{"gene":"PRKACB","robust z-score, siRNA alone":0.539,"viability, siRNA alone":1}
{"gene":"AK1","robust z-score, siRNA alone":-0.0697,"viability, siRNA alone":0.956}
{"gene":"CDK11B","robust z-score, siRNA alone":-1.44,"viability, siRNA alone":0.858}
{"gene":"CASP8","robust z-score, siRNA alone":0.539,"viability, siRNA alone":1}
{"gene":"IRAK1","robust z-score, siRNA alone":-0.0735,"viability, siRNA alone":0.956}
{"gene":"AGK","robust z-score, siRNA alone":-0.338,"viability, siRNA alone":0.937}
{"gene":"PIK3C2B","robust z-score, siRNA alone":0.539,"viability, siRNA alone":1}
{"gene":"NEK7","robust z-score, siRNA alone":0.539,"viability, siRNA alone":1}
{"gene":"CHEK1","robust z-score, siRNA alone":-0.808,"viability, siRNA alone":0.903}
{"gene":"TP53RK","robust z-score, siRNA alone":0.539,"viability, siRNA alone":1}
{"gene":"ACSL6","robust z-score, siRNA alone":-0.251,"viability, siRNA alone":0.943}
{"gene":"KRAS","robust z-score, siRNA alone":"-4.89 (active)","viability, siRNA alone":0.611}
{"gene":"MAPK7","robust z-score, siRNA alone":0.539,"viability, siRNA alone":1}
{"gene":"TEK","robust z-score, siRNA alone":0.539,"viability, siRNA alone":1}
{"gene":"GSK3A","robust z-score, siRNA alone":-0.779,"viability, siRNA alone":0.906}
{"gene":"SRPK2","robust z-score, siRNA alone":0.194,"viability, siRNA alone":0.975}
{"gene":"FGFRL1","robust z-score, siRNA alone":0.199,"viability, siRNA alone":0.976}
{"gene":"RPS6KA4","robust z-score, siRNA alone":-0.417,"viability, siRNA alone":0.931}
{"gene":"DLG4","robust z-score, siRNA alone":-0.588,"viability, siRNA alone":0.919}
{"gene":"MAP3K1","robust z-score, siRNA alone":0.197,"viability, siRNA alone":0.975}
{"gene":"SOX9","robust z-score, siRNA alone":0.415,"viability, siRNA alone":0.991}
{"gene":"RPS6KL1","robust z-score, siRNA alone":0.539,"viability, siRNA alone":1}
{"gene":"PLK1","robust z-score, siRNA alone":"-6.4 (active)","viability, siRNA alone":0.503}
{"gene":"ALDH18A1","robust z-score, siRNA alone":0.539,"viability, siRNA alone":1}
{"gene":"ELF3","robust z-score, siRNA alone":-1.26,"viability, siRNA alone":0.871}
{"gene":"CDKN1A","robust z-score, siRNA alone":0.226,"viability, siRNA alone":0.978}
{"gene":"PRKAR2B","robust z-score, siRNA alone":0.539,"viability, siRNA alone":1}
{"gene":"TWF1","robust z-score, siRNA alone":0.259,"viability, siRNA alone":0.98}

Limited to “viability, siRNA alone” (3 entries from above):
AGK: 0.937
PIK3C2B: 1
NEK7: 1
